In article PMC11294482:
Results are given in words; binding and its absence hold for the method and conditions named. Binding seen in cells or lysates may run through a third protein. Here binding means that the protein was enriched with, or labelled near, the bait; the list need not be complete.

Amino acid sequences for entries named in this document (tags omitted).
UniProt P08670: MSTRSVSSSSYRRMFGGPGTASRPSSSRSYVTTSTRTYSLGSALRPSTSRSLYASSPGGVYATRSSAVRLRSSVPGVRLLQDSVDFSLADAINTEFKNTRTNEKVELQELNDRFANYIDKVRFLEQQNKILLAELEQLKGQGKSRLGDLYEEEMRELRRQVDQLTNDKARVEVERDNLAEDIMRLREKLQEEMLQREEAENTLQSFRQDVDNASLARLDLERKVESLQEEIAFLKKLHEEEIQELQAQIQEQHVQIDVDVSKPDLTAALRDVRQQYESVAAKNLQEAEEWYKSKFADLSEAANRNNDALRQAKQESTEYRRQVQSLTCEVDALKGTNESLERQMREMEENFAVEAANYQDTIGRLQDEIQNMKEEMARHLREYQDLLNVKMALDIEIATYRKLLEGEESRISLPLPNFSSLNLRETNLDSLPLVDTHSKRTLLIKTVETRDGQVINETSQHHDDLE

Molecular target: T1, XRCC2 (human (endogenous in A549)) (UniProt O43543)
T1 sequence: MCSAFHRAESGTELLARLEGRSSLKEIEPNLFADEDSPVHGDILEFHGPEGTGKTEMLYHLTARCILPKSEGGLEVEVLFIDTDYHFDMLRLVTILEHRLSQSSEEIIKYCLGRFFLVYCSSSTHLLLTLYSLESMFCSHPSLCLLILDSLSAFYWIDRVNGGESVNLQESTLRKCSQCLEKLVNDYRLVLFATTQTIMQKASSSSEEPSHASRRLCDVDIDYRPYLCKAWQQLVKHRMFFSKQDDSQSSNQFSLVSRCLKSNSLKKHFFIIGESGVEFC
Test: affinity purification with mass spectrometry; tandem affinity purification / IP capturing XRCC2 interacting proteins, gel with silver nitrate staining, differential bands cut out, LC-MS/MS

- binding: binds
Substance: vimentin (from UniProt P08670 1-466)
